{"source": "PubChem BioAssay AID330", "about": "(DTP/NCI, 2004)", "system": "P388 leukemia ip, CD2F1 mice, survival T/C", "assay": "NCI In Vivo Anticancer Drug Screen. Data for tumor model P388 Leukemia (intraperitoneal) in CD2F1 (CDF1) mice", "settings": "T/C endpoint: median survival time, higher T/C = longer survival", "key": {"[1]": {"settings": "dose: 240.0 mg/kg/injection, schedule: Q01DX005 (ip), vehicle: saline with Tween-80"}, "[2]": {"settings": "dose: 200.0 mg/kg/injection, schedule: Q01DX005 (ip), vehicle: saline with Tween-80"}, "[3]": {"settings": "dose: 50.0 mg/kg/injection, schedule: Q01DX009 (ip), vehicle: saline"}, "[4]": {"settings": "dose: 12.5 mg/kg/injection, schedule: Q01DX009 (ip), vehicle: saline with Tween-80"}, "[5]": {"settings": "dose: 50.0 mg/kg/injection, schedule: Q01DX009 (ip), vehicle: saline with Tween-80"}, "[6]": {"settings": "dose: 200.0 mg/kg/injection, schedule: Q01DX009 (ip), vehicle: saline with Tween-80"}}, "note": "The list shows only some results of the screen, not a fair sample: it gathers tests that were run many times, whatever their T/C, doses with no T/C, and many T/C values between a quarter and a half above the control. Further doses and runs are listed elsewhere. T/C is the treated group as % of the vehicle group. Some doses have a count of surviving animals in place of a T/C: the source files T/C as zero there, which appears to mark a toxic dose or a test without result, not a measured value. Some survivor counts are full or nearly so, which does not show that the dose was tolerated: survival well below the control is almost never listed, so the zero probably covers shortened survival too. Counts of survivors are from the toxicity check (mostly the fifth day) where no day follows; animals may have died later. Schedule codes are those of the source, read here as Q, the interval in days (D) or hours (H), X, the number of doses. Some entries hold several experiments; the values are given in rising order. For survival time, this PubChem deposit counts one and a half times the control or more as active, and values a quarter to a half above the control carry no call in these data; other NCI protocols may use other cut-offs. Some T/C values are followed by the survivors on the day toxicity was checked, most often the fifth; where none is given, no animal had died by that day.", "data": [{"compound": "COP(=S)(OC)SCc1cc(=O)n2c(C)cccc2n1", "values": [{"measurement": "survivor count", "setting": "dose: 50.0 mg/kg/injection, schedule: Q01DX005 (ip), vehicle: distilled water + alcohol", "result": "1 of 6"}, {"measurement": "survivor count", "setting": "dose: 100.0 mg/kg/injection, schedule: Q01DX005 (ip), vehicle: distilled water + alcohol", "result": "0 of 6"}, {"measurement": "survivor count", "setting": "dose: 200.0 mg/kg/injection, schedule: Q01DX005 (ip), vehicle: distilled water + alcohol", "result": "0 of 6"}]}, {"compound": "CC([NH-])CC(C)[NH-].[I][Pt+2][I]", "note": "(stereo not given)", "values": [{"measurement": "T/C", "setting": "dose: 6.25 mg/kg/injection, schedule: Q04DX002 (ip), vehicle: saline with Tween-80", "result": "139 % of control"}, {"measurement": "T/C", "setting": "dose: 12.5 mg/kg/injection, schedule: Q04DX002 (ip), vehicle: saline with Tween-80", "result": "148 % of control"}, {"measurement": "survivor count", "setting": "dose: 25.0 mg/kg/injection, schedule: Q04DX002 (ip), vehicle: saline with Tween-80", "result": "6 of 6"}, {"measurement": "survivor count", "setting": "dose: 50.0 mg/kg/injection, schedule: Q04DX002 (ip), vehicle: saline with Tween-80", "result": "2 of 6 and 4 of 6"}]}, {"compound": "COCCOC1=C(N2CC2)C(=O)C(OCCOC)=C(N2CC2)C1=O", "values": [{"measurement": "T/C", "setting": "dose: 5.0 mg/kg/injection, schedule: Q04DX003 (ip), vehicle: saline", "result": "131 % of control"}, {"measurement": "survivor count", "setting": "dose: 7.5 mg/kg/injection, schedule: Q01DX009 (ip), vehicle: saline", "result": "5 of 6"}, {"measurement": "T/C", "setting": "dose: 7.5 mg/kg/injection, schedule: Q04DX003 (ip), vehicle: saline", "result": "127 % of control"}]}, {"compound": "Cc1ccc(-n2c(=S)n(-c3ccccc3C)c3nc4ccccc4nc2/c3=N\\Nc2ccccc2)cc1", "values": [{"measurement": "survivor count", "setting": "[1]", "result": "0 of 6"}]}, {"compound": "CCN(CC)CCN1C(=O)c2cccc3c(N)c(OC)cc(c23)C1=O", "values": [{"measurement": "T/C", "setting": "dose: 200.0 mg/kg/injection, schedule: Q01DX005 (ip), vehicle: saline", "result": "133 and 138 % of control"}]}, {"compound": "CC(=O)OCC1OC(Sc2ccc([N+](=O)[O-])cc2)C(OC(C)=O)C(OC(C)=O)C1OC(C)=O", "note": "(stereo not given)", "values": [{"measurement": "survivor count", "setting": "dose: 60.0 mg/kg/injection, schedule: Q01DX005 (ip), vehicle: saline with Tween-80", "result": "6 of 6"}, {"measurement": "survivor count", "setting": "dose: 120.0 mg/kg/injection, schedule: Q01DX005 (ip), vehicle: saline with Tween-80", "result": "6 of 6"}, {"measurement": "survivor count", "setting": "[1]", "result": "6 of 6"}]}, {"compound": "O=C(O)c1c(CS(F)(F)(F)(F)F)cc(=O)oc1CS(F)(F)(F)(F)F", "values": [{"measurement": "survivor count", "setting": "[2]", "result": "3 of 5"}]}, {"compound": "COCC(=O)c1ccc([N+](=O)[O-])cc1", "values": [{"measurement": "survivor count", "setting": "[3]", "result": "6 of 6"}]}, {"compound": "COc1ccc2c(c1)CCC1C2CCC2(C)/C(=N/O)C(Cl)C(O)C12", "note": "(stereo not given)", "values": [{"measurement": "survivor count", "setting": "dose: 100.0 mg/kg/injection, schedule: Q01DX001 (ip), vehicle: saline + alcohol", "result": "0 of 6"}, {"measurement": "survivor count", "setting": "dose: 200.0 mg/kg/injection, schedule: Q01DX001 (ip), vehicle: saline + alcohol", "result": "0 of 6"}, {"measurement": "survivor count", "setting": "dose: 400.0 mg/kg/injection, schedule: Q01DX001 (ip), vehicle: saline + alcohol", "result": "0 of 6"}]}, {"compound": "CC(/C=C/C1OC(=O)C=CC1C)=C\\C(C)C/C=C/C(C)=C/C(C)C(=O)C(C)C(O)C(C)C/C(C)=C/C(=O)O", "note": "(stereo not given)", "values": [{"measurement": "T/C", "setting": "dose: 25.0 micrograms/kg/injection, schedule: Q01DX005 (ip), vehicle: alcohol", "result": "144 % of control"}, {"measurement": "T/C", "setting": "dose: 25.0 micrograms/kg/injection, schedule: Q01DX005 (ip), vehicle: saline + alcohol", "result": "127 % of control"}, {"measurement": "T/C", "setting": "dose: 50.0 micrograms/kg/injection, schedule: Q01DX005 (ip), vehicle: alcohol", "result": "143 % of control"}, {"measurement": "T/C", "setting": "dose: 50.0 micrograms/kg/injection, schedule: Q01DX005 (ip), vehicle: saline + alcohol", "result": "133 % of control"}, {"measurement": "T/C", "setting": "dose: 50.0 micrograms/kg/injection, schedule: Q01DX005 (ip), vehicle: saline", "result": "135 % of control"}, {"measurement": "T/C", "setting": "dose: 100.0 micrograms/kg/injection, schedule: Q01DX005 (ip), vehicle: saline + alcohol", "result": "133 % of control"}, {"measurement": "T/C", "setting": "dose: 100.0 micrograms/kg/injection, schedule: Q01DX005 (ip), vehicle: saline", "result": "144 % of control [5 of 6 alive]"}, {"measurement": "T/C", "setting": "dose: 200.0 micrograms/kg/injection, schedule: Q01DX005 (ip), vehicle: saline + alcohol", "result": "147 % of control"}, {"measurement": "survivor count", "setting": "dose: 200.0 micrograms/kg/injection, schedule: Q01DX005 (ip), vehicle: saline", "result": "6 of 6"}, {"measurement": "survivor count", "setting": "dose: 400.0 micrograms/kg/injection, schedule: Q01DX005 (ip), vehicle: saline", "result": "0 of 6"}]}, {"compound": "CCCCCCN(CCCCCC)P(=O)(N1CC1C)N1CC1C", "note": "(stereo not given)", "values": [{"measurement": "survivor count", "setting": "[4]", "result": "6 of 6"}, {"measurement": "survivor count", "setting": "dose: 25.0 mg/kg/injection, schedule: Q01DX009 (ip), vehicle: saline with Tween-80", "result": "5 of 6"}, {"measurement": "survivor count", "setting": "[5]", "result": "3 of 6 and 5 of 6"}, {"measurement": "survivor count", "setting": "dose: 100.0 mg/kg/injection, schedule: Q04DX003 (ip), vehicle: saline with Tween-80", "result": "5 of 6"}, {"measurement": "survivor count", "setting": "dose: 200.0 mg/kg/injection, schedule: Q04DX003 (ip), vehicle: saline with Tween-80", "result": "1 of 6"}, {"measurement": "survivor count", "setting": "dose: 400.0 mg/kg/injection, schedule: Q04DX003 (ip), vehicle: saline with Tween-80", "result": "0 of 6"}]}, {"compound": "COC1=C(C)C(=O)c2c(c(COC(N)=O)c3n2CC2C3N2C)C1=O", "note": "(stereo not given)", "values": [{"measurement": "T/C", "setting": "dose: 3.13 mg/kg/injection, schedule: Q01DX009 (ip), vehicle: saline with Tween-80", "result": "139 % of control"}, {"measurement": "survivor count", "setting": "dose: 6.25 mg/kg/injection, schedule: Q01DX009 (ip), vehicle: saline with Tween-80", "result": "4 of 6"}, {"measurement": "survivor count", "setting": "[4]", "result": "1 of 6"}, {"measurement": "survivor count", "setting": "dose: 25.0 mg/kg/injection, schedule: Q04DX003 (ip), vehicle: saline with Tween-80", "result": "6 of 6"}]}, {"compound": "Cc1cn(O)cc(C)c1=N", "values": [{"measurement": "survivor count", "setting": "[5]", "result": "6 of 6"}, {"measurement": "survivor count", "setting": "dose: 100.0 mg/kg/injection, schedule: Q01DX009 (ip), vehicle: saline with Tween-80", "result": "4 of 6"}, {"measurement": "survivor count", "setting": "[6]", "result": "0 of 6"}]}, {"compound": "c1ccc(-c2nn(-c3ccccc3)[n+](-c3ccccc3-c3ccccc3)n2)cc1", "values": [{"measurement": "T/C", "setting": "dose: 20.0 mg/kg/injection, schedule: Q01DX009 (ip), vehicle: saline", "result": "126 % of control"}, {"measurement": "survivor count", "setting": "dose: 40.0 mg/kg/injection, schedule: Q01DX009 (ip), vehicle: saline", "result": "0 of 6"}]}, {"compound": "c1ccc2c(c1)C1CC3N=NC1C23", "note": "(stereo not given)", "values": [{"measurement": "survivor count", "setting": "dose: 200.0 mg/kg/injection, schedule: Q01DX005 (ip), vehicle: Klucel (hydroxypropylcellulose) (HPC)", "result": "3 of 5"}]}, {"compound": "CCOc1n[n+]([O-])c(Cl)cc1[N+](=O)[O-]", "values": [{"measurement": "survivor count", "setting": "[6]", "result": "2 of 6"}]}, {"compound": "O=c1[nH]c(=O)c2nc(-c3ccc4c(c3)OCO4)cnc2[nH]1", "values": [{"measurement": "survivor count", "setting": "dose: 400.0 mg/kg/injection, schedule: Q04DX003 (ip), vehicle: lactic acid", "result": "6 of 6"}]}, {"compound": "COc1ccc(C(=O)C(CN(C)C)CN(C)C)c(OC)c1", "values": [{"measurement": "survivor count", "setting": "dose: 30.0 mg/kg/injection, schedule: Q01DX005 (ip), vehicle: saline", "result": "0 of 6"}, {"measurement": "survivor count", "setting": "dose: 60.0 mg/kg/injection, schedule: Q01DX005 (ip), vehicle: saline", "result": "0 of 6"}, {"measurement": "survivor count", "setting": "dose: 120.0 mg/kg/injection, schedule: Q01DX005 (ip), vehicle: saline", "result": "0 of 6"}, {"measurement": "survivor count", "setting": "dose: 240.0 mg/kg/injection, schedule: Q01DX005 (ip), vehicle: saline", "result": "0 of 6"}]}, {"compound": "COC(=O)Cc1cccc2c(=O)cc(-c3cccs3)oc12", "values": [{"measurement": "T/C", "setting": "dose: 200.0 mg/kg/injection, schedule: Q01DX009 (ip), vehicle: saline", "result": "135 % of control [5 of 6 alive]"}]}, {"compound": "CCOn1nnc2c([N+](=O)[O-])cccc21", "values": [{"measurement": "survivor count", "setting": "[2]", "result": "1 of 6"}]}, {"compound": "CN=C1N=C(c2ccc(C(C)(C)C)cc2)C(O)(c2ccc(C(C)(C)C)cc2)N1", "note": "(stereo not given)", "values": [{"measurement": "survivor count", "setting": "dose: 100.0 mg/kg/injection, schedule: Q04DX002 (ip), vehicle: saline with Tween-80", "result": "2 of 6"}]}, {"compound": "CCOc1nc(N)nc(C)c1N=Nc1ccc(Cl)cc1", "values": [{"measurement": "survivor count", "setting": "dose: 240.0 mg/kg/injection, schedule: Q01DX005 (ip), vehicle: Klucel + Tween-80", "result": "4 of 6"}]}, {"compound": "NNC(=O)c1cccc2ccccc12", "values": [{"measurement": "survivor count", "setting": "dose: 50.0 mg/kg/injection, schedule: Q01DX005 (ip), vehicle: saline with Tween-80", "result": "0 of 5"}, {"measurement": "survivor count", "setting": "dose: 100.0 mg/kg/injection, schedule: Q01DX005 (ip), vehicle: saline with Tween-80", "result": "0 of 5"}, {"measurement": "survivor count", "setting": "[2]", "result": "0 of 5"}]}, {"compound": "CN(C)CCN(C)C(=N)N", "values": [{"measurement": "survivor count", "setting": "[3]", "result": "6 of 6"}]}]}
